Source: patent publication US12286437B2, “Cardiac sarcomere inhibitors” (Cytokinetics, Inc., priority 2021, dated 2025)

What follows are compounds tested on Rat Cardiac Contractility (assay: Echocardiography assessment of acute pharmacodynamic effect in rat cardiac contractility (fractional shortening)). Conditions: ratio.
Type: in vivo, Sprague Dawley rats
Procedure: Assessment of in vivo cardiac function by echocardiography was performed in male Sprague Dawley rats under isoflurane (1-3%) anesthesia. 2-D M-mode images of the left ventricle were acquired in the parasternal long-axis view before, during, and after administration of compounds. In vivo fractional shortening was determined by M-mode image analysis with the following calculation: ((End diastolic diameter−end systolic diameter)[…] end diastolic diameter×100). Three pre-dose baseline M-Mode images were taken at 1-minute intervals prior to compound administration. Compounds were formulated in a 0.5% hydroxypropyl methylcellulose 2910 (HPMC 2910): 0.1% Tween 80 suspension and delivered as a single dose (5 mL/kg) by oral gavage. At one and four hours post-dose, rats were lightly anesthetized for M-mode echocardiography measurement. Concurrent with echocardiography measurements, blood samples were taken to determine the corresponding compound plasma concentrations. The resulting plasma concentrations were used to estimate the IC50 and IC10 values, which is the concentration at which fractional shortening is 50% and 10% of the pre-dose baseline contractility, respectively.
`C[C@H]1CC[C@H](N2CC(=O)N(Cc3ccc(F)c(F)c3)C3(CN(C=O)C3)C2=O)CC1` [Compound 4, 5-(3,4-difluorobenzyl)-8-((1r,4r)-4-methylcyclohexyl)-6,9-dioxo-2,5,8-triazaspiro[3.5]nonane-2-carbaldehyde] showed an IC50/IC10 of 9.73.
In the case of `C[C@H]1CC[C@H](N2CC(=O)N(Cc3ccc(F)c(F)c3)C3(CN(C(N)=O)C3)C2=O)CC1` [Compound 5, 5-(3,4-difluorobenzyl)-8-((1r,4r)-4-methylcyclohexyl)-6,9-dioxo-2,5,8-triazaspiro[3.5]nonane-2-carboxamide], the IC50/IC10 is reported as 3.79.
`CC(C)N1CC(=O)N(Cc2ccc(Cl)c(F)c2)C2(CN(c3cccnn3)C2)C1=O` [Compound 8, 5-(4-chloro-3-fluorobenzyl)-8-isopropyl-2-(pyridazin-3-yl)-2,5,8-triazaspiro[3.5]nonane-6,9-dione] gave an IC50/IC10 of 4.44.
For `CC(C)N1CC(=O)N(Cc2ccc(C(F)(F)F)cc2)C2(CN(c3cccnn3)C2)C1=O` [Compound 13, 8-isopropyl-2-(pyridazin-3-yl)-5-(4-(trifluoromethyl)benzyl)-2,5,8-triazaspiro[3.5]nonane-6,9-dione], the IC50/IC10 was 3.7.
Work on `C[C@H]1CC[C@H](N2CC(=O)N(Cc3ccc(Cl)cc3)C3(CN(C(N)=O)C3)C2=O)CC1` [Compound 18, 5-(4-chlorobenzyl)-8-((1r,4r)-4-methylcyclohexyl)-6,9-dioxo-2,5,8-triazaspiro[3.5]nonane-2-carboxamide] yielded an IC50/IC10 of 3.18.
